This is one part of the list. Shown are side measurements of this screen, not its main read-out; they come without a call. Most of these compounds were active or inconclusive in the main read-out, so they are no random draw. Potencies come from curve fits of mixed quality, noted in brackets.

The assay is described as follows: qHTS Assay for Lipid Storage Modulators in Drosophila S3 Cells.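 On cell number change: cells counted by Cell Tracker Red CMTPX staining in the red channel.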 To be noted: BODIPY lipid droplet fluorescence, 18-24 h; for cell number change: measured here: cell count max response, cells fed with added oleic acid. In outline:
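Drosophila S3 cells loaded with oleic acid (400 uM, as added) and compounds at several concentrations; lipid droplets imaged by 488-nm laser-scanning cytometry, 500–530 nm intensity and object ratio to cell channel. Percent activity normalized to 20 uM Triacsin C.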
A general note: Quantitative high-throughput screening tests each substance at several concentrations.

Setting [1] is: measured here: lipid fluorescence (Fed channel) AC50, cells fed with added oleic acid.
The mark [2] stands for this setting: measured here: cell number channel AC50, cells fed with added oleic acid.

The AC50 is the concentration at which the activity in the assay is half-maximal. Lower therefore signals greater potency. On to `COCCNC(=O)[C@@H]1CCCN1C(=O)C1CCN(S(=O)(=O)c2ccc(C)cc2)CC1`, for which the cell number change was -1.65%. The half-maximal activity concentration (AC50) under setting [1] is 0.00517 µM [falling, full curve, poor fit].
Take `CCCC(=O)N1CCc2cc(-c3nc(N)sc3C)ccc21`: the cell number change was -28.4%. Moreover, the concentration at half-maximal activity (AC50) under setting [2] is 0.731 µM [falling, full curve, poor fit]. Moreover, under setting [1], the half-maximal activity concentration (AC50) is 0.651 µM [falling, single point].
With `COc1ccc(Cn2c(-c3ccc(C)cc3)nc3c(c(=O)c4ccccc4n3C)c2=O)cc1`, the cell number change turned out to be 16%. For the same molecule, under setting [1], the AC50 was 3.26 µM [falling, single point].
`CN1CCc2ccccc2C1C1CCNCC1` (stereo not drawn): the cell number change is -43.4%. The AC50 under setting [2] is 11.6 µM [falling, partial curve]. Moreover, the concentration at half-maximal activity (AC50) under setting [1] was 4.61 µM [falling, full curve, poor fit].
Turning to `N#CCC(=O)N/N=C/c1c(-c2ccccc2)n(-c2ccccc2)c2ccccc12`, the cell number change was 46.6%. The half-maximal activity concentration (AC50) under setting [2] was 16.4 µM [rising, partial curve].
In the case of `COc1ccccc1NS(=O)(=O)c1cc(NC(=O)c2cccs2)ccc1N1CCCCC1`, the cell number change is -63%. Further, the AC50 under setting [2] was 25.9 µM [falling, partial curve, poor fit].
As for `CCOC(=O)C(Sc1nnc2c3ccccc3n(CC)c2n1)C(=O)OCC`, the AC50 under setting [2] was 1.3 µM [rising, full curve].
As to `O=C(CCN1CCCCC1)Nc1cccc(Br)c1`, the cell number change came out at 0.794%. Moreover, under setting [1], the concentration at half-maximal activity (AC50) was 0.103 µM [rising, full curve, poor fit].
Consider `CCN(CC)S(=O)(=O)c1cc(OC)ccc1N=Nc1ccc(O)c2ncccc12`, for which the cell number change was 8.97%. Also, the AC50 under setting [1] is 29.1 µM [rising, single point].
On to `CCCCc1ccc(NC(=O)CN2C(=O)C3CCCCC3C2=O)cc1` (stereo not drawn), for which the cell number change is -28.8%. Also, under setting [1], the AC50 was 6.51 µM [falling, single point].
Consider `COC(=O)c1ccc(NCC(=O)c2ccccc2)cc1`, for which the cell number change was -29.5%. Under setting [2], the AC50 is 0.0291 µM [falling, full curve, poor fit]. For the same molecule, the AC50 under setting [1] was 0.731 µM [falling, full curve, poor fit].
As to `Cc1ccc(S(=O)(=O)N2CCOCC2)cc1NC(=O)CN1CCN(c2ccc(O)cc2)CC1`, the cell number change is -17.4%.
In the case of `CC(C)(C)C(=O)NCCCNc1ccc([N+](=O)[O-])cc1`, the cell number change was -44%.
For the molecule `COC(CNC(=O)CNC(=S)N(Cc1ccccc1)Cc1cccnc1)OC`, the cell number change amounted to 30.1%. Also, the AC50 under setting [2] was 0.326 µM [rising, full curve, poor fit]. For the same molecule, the AC50 under setting [1] is 6.51 µM [rising, single point].
With `Cc1c(-c2ccccc2)nc(-c2ccccc2)[nH]c1=O`, the cell number change is -11.7%. For the same molecule, the AC50 under setting [1] is 29.1 µM [falling, single point].
Turning to `COc1cccc(CNCC(O)(c2ccc(Cl)cc2)c2ccc(Cl)cc2)c1`, the cell number change was -53.6%. The AC50 under setting [2] is 29.1 µM [falling, single point]. The half-maximal activity concentration (AC50) under setting [1] was 6.51 µM [rising, partial curve, poor fit].
As for `COc1ccc(C(=O)c2sc(Nc3cccc(OC)c3)c(C(=O)Nc3cccc(C)c3C)c2N)cc1`, the cell number change was -53.3%. Further, under setting [2], the AC50 is 29.1 µM [falling, single point].
`COc1ccc(C(=O)/C=C/c2ccc(OC)c(COc3ccccc3F)c2)cc1`: the cell number change was -12.1%. The AC50 under setting [1] was 29.1 µM [falling, single point].
For the molecule `COC(=O)NNC(=O)c1ccc(Cl)cc1Cl`, the cell number change came to 52.8%. For the same molecule, the concentration at half-maximal activity (AC50) under setting [2] is 29.1 µM [rising, single point]. Besides, the AC50 under setting [1] is 29.1 µM [rising, single point].
As for `Cc1ccc(CSc2nnnn2C)cc1`, the cell number change is -32.2%. Moreover, under setting [2], the AC50 was 6.51 µM [falling, full curve, poor fit]. For the same molecule, the AC50 under setting [1] is 6.51 µM [falling, single point].
For `N#Cc1ccccc1S(=O)(=O)N1CCN(C(=O)Cc2coc3cc(O)ccc23)CC1`, the cell number change worked out at 23%. In addition, the AC50 under setting [1] was 6.51 µM [rising, partial curve, poor fit].
In the case of `CCOC(=O)C1CCN(S(=O)(=O)c2ccc(C(=O)OC)cc2)CC1`, the cell number change was -31.3%. In addition, under setting [2], the AC50 is 20.6 µM [falling, single point]. For the same molecule, under setting [1], the concentration at half-maximal activity (AC50) was 18.4 µM [falling, partial curve].
With `COc1ccc(Nc2cc(C(=O)NCc3ccco3)c3ccccc3n2)cc1`, the cell number change was 18.8%. Besides, the half-maximal activity concentration (AC50) under setting [1] is 0.103 µM [rising, partial curve, poor fit].
With `COc1cc(C(=O)OCCc2c(C)nc3nc[nH]n3c2=O)cc(OC)c1OC`, the cell number change is -30.9%. Also, the AC50 under setting [2] was 23.1 µM [falling, single point].
Regarding `CCCn1c(=O)c(-c2ccccc2)c(O)c2ccccc21`, the cell number change was 17.1%. Further, the AC50 under setting [1] is 6.51 µM [falling, single point].
As for `CN(C)S(=O)(=O)c1cccc(NC(=O)c2cccc(NS(=O)(=O)c3ccccc3)c2)c1`, the cell number change was -50.8%. The AC50 under setting [2] was 11.6 µM [falling, partial curve, poor fit]. Besides, the AC50 under setting [1] was 29.1 µM [falling, single point].
Take `COCCOC(=O)N/C=C\c1nc2ccccc2c(=O)[nH]1`: the cell number change stood at 28.9%. In addition, the concentration at half-maximal activity (AC50) under setting [1] was 0.13 µM [rising, full curve, poor fit].
In the case of `COC(=O)c1ccc(NC(=O)CCn2cccc2)cc1`, the cell number change was -29.9%. Also, the half-maximal activity concentration (AC50) under setting [1] is 32.6 µM [falling, single point].
As to `COn1c(SCc2ccc(Cl)cc2)nc2ccccc2c1=O`, the cell number change is 120%. Also, the AC50 under setting [2] was 29.1 µM [rising, single point].
On to `O=C(CCNC(=O)c1ccccc1Cl)Nc1ccc(S(=O)(=O)Nc2ncccn2)cc1`, for which the cell number change is -32.3%. In addition, the AC50 under setting [1] was 3.26 µM [falling, full curve].
On to `Fc1ccc(C(c2nnnn2Cc2ccccc2)N2CCSCC2)cc1` (stereo not drawn), for which the cell number change was found to be 3.79%. Moreover, the half-maximal activity concentration (AC50) under setting [1] was 3.66 µM [rising, partial curve].
`Cc1ccc(C(=O)NCCSC(C)(C)C)cc1[N+](=O)[O-]`: the cell number change was -25.4%. Under setting [1], the half-maximal activity concentration (AC50) is 1.84 µM [rising, partial curve, poor fit].
For the molecule `C=CCN(CC=C)S(=O)(=O)c1ccc(NC(=S)NC(=O)/C=C/c2cccc3ccccc23)cc1`, the cell number change is -5.38%.
`COc1ccc(CN(Cc2cccn2C)S(=O)(=O)c2ccccc2)cc1`: under setting [1], the AC50 was 6.51 µM [rising, single point].
As to `Cc1cc(Oc2ccc(C)c(Cl)c2)nc(SCC(=O)c2ccccc2)n1`, the cell number change turned out to be 41.4%. Besides, the concentration at half-maximal activity (AC50) under setting [2] is 29.1 µM [rising, single point]. Also, under setting [1], the concentration at half-maximal activity (AC50) was 29.1 µM [rising, single point].
Regarding `CC1c2ccccc2SC(CCCN(C)C)c2ccccc21` (stereo not drawn), the cell number change came out at 2.54%. In addition, under setting [1], the AC50 was 0.164 µM [falling, full curve, poor fit].
For `COc1ccc(C(=O)NNC2=C(C(=O)C(F)(F)F)CCC2)cc1`, the cell number change amounted to 13.1%. The AC50 under setting [1] is 10.3 µM [rising, partial curve, poor fit].
As for `Cc1ccc(C(=O)NCc2ccc3c(c2)OCO3)cc1N1CCCC1=O`, the cell number change was -13%. The AC50 under setting [1] was 0.00461 µM [rising, full curve, poor fit].
Consider `COc1cc2c(cc1NC(=O)C(C)Sc1nc3ccccc3n1C)oc1ccccc12` (stereo not drawn), for which the cell number change was 27.9%. For the same molecule, the AC50 under setting [1] is 29.1 µM [rising, partial curve].
`COc1ccc(OC)c(N(CC(=O)NN=C2CCN(C)CC2)S(=O)(=O)c2ccccc2)c1`: the cell number change is -47.4%. The AC50 under setting [2] was 32.6 µM [falling, single point].
`Cc1ccc(S(=O)(=O)N(C)c2ccccc2C(=O)Nc2c(F)cccc2F)cc1`: the cell number change is -36.5%. Also, the half-maximal activity concentration (AC50) under setting [2] was 20.6 µM [falling, single point]. Further, the AC50 under setting [1] is 29.1 µM [falling, single point].
As for `CC(=O)OC(C(=O)NCc1ccco1)c1cccnc1` (stereo not drawn), the cell number change was -75.1%. Further, the concentration at half-maximal activity (AC50) under setting [2] was 25.9 µM [falling, partial curve, poor fit]. In addition, the AC50 under setting [1] was 0.517 µM [falling, partial curve, poor fit].
As for `O=C(CSCc1ccc(Cl)cc1)NN=C1CCCC1`, the cell number change worked out at 17.6%. The concentration at half-maximal activity (AC50) under setting [1] was 20.6 µM [rising, single point].
Consider `COc1ccc(C(=O)OC2CCN(c3ncc(C(F)(F)F)cc3Cl)CC2)cc1`, for which the cell number change was -44.4%. For the same molecule, under setting [2], the half-maximal activity concentration (AC50) is 4.61 µM [falling, single point]. Also, the concentration at half-maximal activity (AC50) under setting [1] is 6.51 µM [falling, single point].
Take `COC(C[C@@H](O)[C@@H](C)[C@H](O)COCc1ccccc1)OC`: the cell number change amounted to 26.4%.
Turning to `O=C(c1ccc2oc(CCCc3ccccc3)nc2c1)N1CCCC(CCCO)C1` (stereo not drawn), the AC50 under setting [1] is 20.6 µM [falling, single point].
`CCCNC(=O)CCC(=O)Nc1ncc(-c2ccc(C)cc2)n1C`: the AC50 under setting [2] was 4.61 µM [rising, single point].
Turning to `CC1CCN(C(=O)c2cc3ccccc3o2)CC1`, the cell number change came to 143%. Also, under setting [2], the AC50 was 18.4 µM [rising, single point]. Also, the AC50 under setting [1] was 6.51 µM [rising, single point].
`COc1ccc(S(=O)(=O)N2Cc3ccccc3CC2C(=O)N2CCOCC2)cc1OC` (stereo not drawn): the cell number change was -4.52%.
Regarding `O=C(Nc1ccc2c(c1)OCO2)C(c1ccccc1)N1CCN(C(=O)c2ccco2)CC1` (stereo not drawn), the cell number change amounted to 76.6%. The AC50 under setting [2] is 4.11 µM [rising, partial curve, poor fit].
In the case of `COCCn1c(N)c(Sc2ccccc2)c(=O)[nH]c1=O`, the cell number change turned out to be 7.14%.
As for `COc1ccccc1NC(=O)CCC(=O)OCC(=O)c1ccc(C)c([N+](=O)[O-])c1`, the cell number change stood at 14.7%. The concentration at half-maximal activity (AC50) under setting [1] is 2.91 µM [rising, partial curve].
Turning to `CC12CCC(=O)N1C(C(=O)Nc1nnc(SCc3ccc(F)cc3)s1)CS2` (stereo not drawn), the cell number change was -2.48%. Also, the AC50 under setting [1] is 29.1 µM [falling, single point].
Turning to `O=C(CNC(=O)c1nc[nH]c1C(=O)N1CCNCC1)OCc1ccccc1`, the cell number change was found to be 17%. For the same molecule, the concentration at half-maximal activity (AC50) under setting [1] was 29.1 µM [rising, single point].
For the molecule `O=C(NCCc1ccccc1)c1ccc2c(c1)S(=O)(=O)c1cc(Cl)ccc1C2=O`, the cell number change is -42%. Further, the concentration at half-maximal activity (AC50) under setting [2] is 0.92 µM [falling, full curve]. Further, the AC50 under setting [1] is 1.46 µM [falling, partial curve].
Regarding `O=C(CSc1n[nH]c(=O)[nH]c1=O)NC1CC1`, the cell number change is -46.4%. Besides, the AC50 under setting [2] was 13 µM [falling, partial curve]. Besides, the half-maximal activity concentration (AC50) under setting [1] was 0.13 µM [falling, partial curve, poor fit].

Values taken from PubChem BioAssay AID2685 (National Center for Advancing Translational Sciences (NCATS), 2010).
